The values below come from patent US20230219986A1, “NOVEL AMINOPYRIMIDINE EGFR INHIBITOR” (QILU PHARMACEUTICAL CO., LTD., priority 2020, published 2023).

Protein sequences, listed by entry. Tags and fused reporters are not part of them. Lines headed by an entry give the natural chain unless they say otherwise; changes in a name come on top. Chains listed by the source or under a name are the forms on record and can include a tag or linker. Residues count along the entry.
UniProt P00533, 25-1210 limits assumed: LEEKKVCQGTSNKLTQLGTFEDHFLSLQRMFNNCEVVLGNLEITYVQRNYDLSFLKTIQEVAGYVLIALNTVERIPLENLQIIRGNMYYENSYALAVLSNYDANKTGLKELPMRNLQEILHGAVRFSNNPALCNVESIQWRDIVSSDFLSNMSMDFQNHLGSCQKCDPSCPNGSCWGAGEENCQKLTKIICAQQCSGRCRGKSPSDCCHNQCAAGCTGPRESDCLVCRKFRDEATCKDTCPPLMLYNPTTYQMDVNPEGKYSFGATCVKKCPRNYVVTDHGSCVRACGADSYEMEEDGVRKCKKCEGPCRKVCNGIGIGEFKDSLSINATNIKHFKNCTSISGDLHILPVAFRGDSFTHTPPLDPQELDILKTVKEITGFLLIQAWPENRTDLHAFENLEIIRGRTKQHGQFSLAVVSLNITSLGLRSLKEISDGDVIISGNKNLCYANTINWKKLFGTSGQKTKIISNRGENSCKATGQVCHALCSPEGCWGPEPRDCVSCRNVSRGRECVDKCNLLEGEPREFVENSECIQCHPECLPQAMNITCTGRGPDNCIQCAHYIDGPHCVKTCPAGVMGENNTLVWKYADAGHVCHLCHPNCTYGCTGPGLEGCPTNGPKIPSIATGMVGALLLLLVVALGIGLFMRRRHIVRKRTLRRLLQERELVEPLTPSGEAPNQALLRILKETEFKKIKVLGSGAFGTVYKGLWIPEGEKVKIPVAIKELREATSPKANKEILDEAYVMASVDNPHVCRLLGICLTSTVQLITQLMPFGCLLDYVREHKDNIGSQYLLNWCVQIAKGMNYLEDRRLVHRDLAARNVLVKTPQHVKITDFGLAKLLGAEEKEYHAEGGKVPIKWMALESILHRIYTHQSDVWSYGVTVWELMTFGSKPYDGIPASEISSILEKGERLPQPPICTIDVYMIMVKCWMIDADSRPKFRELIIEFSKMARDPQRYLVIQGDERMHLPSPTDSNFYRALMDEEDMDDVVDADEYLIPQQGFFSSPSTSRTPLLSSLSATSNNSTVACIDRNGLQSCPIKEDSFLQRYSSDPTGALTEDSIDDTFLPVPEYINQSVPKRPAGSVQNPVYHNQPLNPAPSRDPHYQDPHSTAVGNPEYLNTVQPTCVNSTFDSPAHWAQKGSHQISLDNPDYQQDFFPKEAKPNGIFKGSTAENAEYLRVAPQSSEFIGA
UniProt P00533, whole entry T790M/C797S/L858R: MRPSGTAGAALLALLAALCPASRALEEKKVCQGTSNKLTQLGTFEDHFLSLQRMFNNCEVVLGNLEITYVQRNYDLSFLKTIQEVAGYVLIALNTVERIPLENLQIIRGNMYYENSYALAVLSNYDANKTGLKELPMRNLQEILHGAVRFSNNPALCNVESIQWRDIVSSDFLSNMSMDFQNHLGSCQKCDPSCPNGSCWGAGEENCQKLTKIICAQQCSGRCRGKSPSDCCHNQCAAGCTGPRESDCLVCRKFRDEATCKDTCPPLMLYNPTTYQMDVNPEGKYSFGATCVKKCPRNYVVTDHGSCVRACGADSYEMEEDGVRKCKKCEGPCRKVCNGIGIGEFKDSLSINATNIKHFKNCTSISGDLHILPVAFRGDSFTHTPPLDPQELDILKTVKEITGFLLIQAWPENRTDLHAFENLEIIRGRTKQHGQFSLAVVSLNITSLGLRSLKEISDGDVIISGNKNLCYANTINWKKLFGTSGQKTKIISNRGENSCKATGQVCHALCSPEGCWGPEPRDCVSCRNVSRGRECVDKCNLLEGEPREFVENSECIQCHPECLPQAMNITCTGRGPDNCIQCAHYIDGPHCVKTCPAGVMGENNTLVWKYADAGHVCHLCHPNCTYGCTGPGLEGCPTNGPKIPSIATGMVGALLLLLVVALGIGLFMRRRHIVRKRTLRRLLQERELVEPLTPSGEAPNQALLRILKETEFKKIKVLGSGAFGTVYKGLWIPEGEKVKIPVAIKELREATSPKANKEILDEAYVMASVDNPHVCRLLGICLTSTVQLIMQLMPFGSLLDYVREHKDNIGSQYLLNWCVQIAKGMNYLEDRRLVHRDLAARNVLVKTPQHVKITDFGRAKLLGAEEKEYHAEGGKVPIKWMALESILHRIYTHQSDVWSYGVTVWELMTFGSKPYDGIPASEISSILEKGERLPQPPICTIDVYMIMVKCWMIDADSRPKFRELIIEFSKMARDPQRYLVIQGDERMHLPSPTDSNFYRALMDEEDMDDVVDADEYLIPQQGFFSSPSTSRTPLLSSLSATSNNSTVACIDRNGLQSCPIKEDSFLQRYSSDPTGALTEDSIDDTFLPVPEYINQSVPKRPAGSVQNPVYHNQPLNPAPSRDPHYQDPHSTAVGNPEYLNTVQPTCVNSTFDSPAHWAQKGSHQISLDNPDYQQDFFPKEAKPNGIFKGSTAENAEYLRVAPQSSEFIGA
UniProt P00533, 25-1210 T790M/C797S/L858R limits assumed: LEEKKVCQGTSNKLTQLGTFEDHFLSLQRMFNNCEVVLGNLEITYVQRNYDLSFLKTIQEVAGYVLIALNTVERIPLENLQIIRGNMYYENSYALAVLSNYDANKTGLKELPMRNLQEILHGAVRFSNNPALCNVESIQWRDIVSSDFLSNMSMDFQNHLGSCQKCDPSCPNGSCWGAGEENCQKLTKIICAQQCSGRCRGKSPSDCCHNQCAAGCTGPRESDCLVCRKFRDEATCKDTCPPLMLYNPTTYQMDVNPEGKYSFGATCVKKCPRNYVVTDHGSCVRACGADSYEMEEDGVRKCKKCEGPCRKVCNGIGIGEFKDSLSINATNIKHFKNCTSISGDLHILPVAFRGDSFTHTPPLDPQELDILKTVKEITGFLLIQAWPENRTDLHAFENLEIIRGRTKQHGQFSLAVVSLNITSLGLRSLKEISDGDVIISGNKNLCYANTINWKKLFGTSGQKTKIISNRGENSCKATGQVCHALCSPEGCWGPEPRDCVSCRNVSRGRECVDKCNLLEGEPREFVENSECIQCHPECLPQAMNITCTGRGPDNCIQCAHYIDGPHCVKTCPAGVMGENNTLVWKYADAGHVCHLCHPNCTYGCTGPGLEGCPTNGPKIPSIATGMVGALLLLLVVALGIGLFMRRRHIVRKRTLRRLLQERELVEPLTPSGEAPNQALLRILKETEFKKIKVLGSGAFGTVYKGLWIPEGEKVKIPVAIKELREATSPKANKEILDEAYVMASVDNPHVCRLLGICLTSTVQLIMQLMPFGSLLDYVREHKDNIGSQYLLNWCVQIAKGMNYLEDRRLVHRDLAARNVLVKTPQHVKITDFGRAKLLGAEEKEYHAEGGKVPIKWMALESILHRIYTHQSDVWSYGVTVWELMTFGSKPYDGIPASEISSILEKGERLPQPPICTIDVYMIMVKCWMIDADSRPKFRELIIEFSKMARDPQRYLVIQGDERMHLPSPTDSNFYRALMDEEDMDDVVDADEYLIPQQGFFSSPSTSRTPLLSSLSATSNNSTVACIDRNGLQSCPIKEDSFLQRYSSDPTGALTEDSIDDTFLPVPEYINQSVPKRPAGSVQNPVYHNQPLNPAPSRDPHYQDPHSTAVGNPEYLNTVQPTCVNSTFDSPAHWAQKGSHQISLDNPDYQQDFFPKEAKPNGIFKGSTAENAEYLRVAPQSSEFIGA
UniProt P00533, with tags, fused parts or gaps C797S/DEL746-750/T790M: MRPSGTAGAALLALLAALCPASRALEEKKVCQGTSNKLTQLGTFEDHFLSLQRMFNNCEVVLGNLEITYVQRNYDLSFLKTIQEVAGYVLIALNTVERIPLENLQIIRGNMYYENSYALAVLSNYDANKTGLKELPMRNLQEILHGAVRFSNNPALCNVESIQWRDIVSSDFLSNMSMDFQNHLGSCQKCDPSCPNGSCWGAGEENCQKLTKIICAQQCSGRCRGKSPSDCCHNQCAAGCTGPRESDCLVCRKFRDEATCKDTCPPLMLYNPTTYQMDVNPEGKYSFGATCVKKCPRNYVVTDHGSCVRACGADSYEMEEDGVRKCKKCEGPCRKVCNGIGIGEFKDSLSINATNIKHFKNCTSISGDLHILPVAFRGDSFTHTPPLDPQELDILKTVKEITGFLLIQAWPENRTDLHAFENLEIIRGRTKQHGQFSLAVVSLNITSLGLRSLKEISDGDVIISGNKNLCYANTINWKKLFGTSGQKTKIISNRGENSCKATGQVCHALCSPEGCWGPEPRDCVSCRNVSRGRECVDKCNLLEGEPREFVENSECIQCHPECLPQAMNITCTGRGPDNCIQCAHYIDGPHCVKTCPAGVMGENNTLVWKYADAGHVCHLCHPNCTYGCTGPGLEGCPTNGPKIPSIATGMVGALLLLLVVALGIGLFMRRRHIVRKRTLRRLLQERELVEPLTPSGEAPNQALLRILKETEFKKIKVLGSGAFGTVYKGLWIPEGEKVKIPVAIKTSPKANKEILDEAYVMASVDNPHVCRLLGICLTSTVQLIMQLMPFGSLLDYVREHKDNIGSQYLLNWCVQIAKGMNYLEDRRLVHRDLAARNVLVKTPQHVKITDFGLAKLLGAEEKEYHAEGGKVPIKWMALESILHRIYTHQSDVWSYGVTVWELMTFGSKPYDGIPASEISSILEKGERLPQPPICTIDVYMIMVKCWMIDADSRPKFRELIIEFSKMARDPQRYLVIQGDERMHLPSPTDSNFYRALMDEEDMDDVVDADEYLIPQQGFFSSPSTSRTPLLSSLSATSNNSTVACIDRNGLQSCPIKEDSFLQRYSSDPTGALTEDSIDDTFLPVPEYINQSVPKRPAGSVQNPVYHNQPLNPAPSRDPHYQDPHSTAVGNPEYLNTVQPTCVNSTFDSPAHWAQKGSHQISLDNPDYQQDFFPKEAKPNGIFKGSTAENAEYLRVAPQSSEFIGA

The target of test [1] is L858R/T790M/C797S triple mutant EGFR (Homo sapiens, UniProt P00533, C797S/L858R/T790M). Description: Enzymology experiment in vitro (HTRF/FRET kinase activity), L858R/T790M/C797S triple mutant EGFR. Conditions: read-out: EGFR (L858R/T790M/C797S) IC50, HTRF KinEASE-TK. The class given is biochemical. In general terms: In TR-FRET formats the signal depends on donor and acceptor labels being close together.

For test [2], the target named is Ba/F3 L858R/T790M/C797S EGFR triple mutant cell line (Homo sapiens, UniProt P00533, T790M/C797S/L858R, cells depend on it). In words: Cell proliferation inhibition experiment (CellTiter-Glo), Ba/F3 L858R/T790M/C797S. Conditions: read-out: Ba/F3 (L858R/T790M/C797S) IC50, 72 hours, Cell Titer-Glo.
The test system of test [3] is EGFR wild-type cell line A431. Description: Cell proliferation inhibition experiment (CellTiter-Glo), A431. Conditions: read-out: A431 EGFR WT IC50; A431 cells, 72 hours, Cell Titer-Glo.
For test [4], the target named is Ba/F3 De119/T790M/C797S EGFR triple mutant cell line (Homo sapiens, UniProt P00533, T790M/C797S, cells depend on it, form not given). In words: Cell proliferation inhibition experiment (CellTiter-Glo), Ba/F3 De119/T790M/C797S. Conditions: read-out: Ba/F3 (Del19/T790M/C797S) IC50, 72 hours, Cell Titer-Glo. For orientation: Cellular ATP, detected with luciferase, serves as a proxy for viable cell number.

A further test deals with wild-type EGFR (Homo sapiens, UniProt P00533). Description: Enzymology experiment in vitro (HTRF/FRET kinase activity), wild-type EGFR. The class given is biochemical. Conditions: read-out: EGFR (WT) IC50, HTRF KinEASE-TK.

The match of structure and compound is tentative.

For the molecule `COc1cc(N2CCC(N3CCOCC3)CC2)c(-c2cnn(C)c2)cc1Nc1ncc(Br)c(Nc2ccc3nccnc3c2P(C)(C)=O)n1`, the figures for the IC50 (in test [1]; in test [3]; at wild-type EGFR) were 0.2 nM, 154 nM and 2.57 nM, respectively. Besides, the GI50 in test [2] worked out at 18.4 nM; in test [4] it was 7.08 nM.
